# Assay results published in PubChem BioAssay AID1487 (National Center for Advancing Translational Sciences (NCATS), 2009).
# The list shows a part of the results. Further columns of the screen follow, without active or inactive calls. The list favours compounds with an active or inconclusive main result. Potencies come from curve fits of mixed quality, noted in brackets.
# Assay: qHTS Assay for Modulators of Lamin A Splicing
# Details: HeLa LMNA splicing GFP/RFP minigene ratio, 48 h
# Procedure, shortened: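 S3 HeLa cells stably expressing lamin A-EGFP splicing minigene plus DsRed2, 600 cells/well, 48 h compound exposure at 37C. Laser-scanning cytometry; analysed as GFP (500-530 nm)/RFP (575-640 nm) total intensity ratio; 0.5% DMSO vehicle.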
# [1] = measured here: RFP viability control channel
# [2] = measured here: GFP splicing reporter channel
SMILES,AC50 [1],AC50 [2]
O=C(COc1ccc(Cc2ccccc2)cc1)c1ccc(F)cc1,"31.6 µM [rising, single point]",–
Cc1ccccc1N(C)S(=O)(=O)c1nnc(NC(=O)c2ccco2)s1,"5.01 µM [rising, partial curve]","7.08 µM [rising, full curve, poor fit]"
CCOC(=O)c1cc(-c2ccc(OC)cc2)n(CCC(=O)NCCc2ccccc2)c1C,"6.31 µM [rising, full curve, poor fit]",–
COc1cccc(C(=O)NCCc2csc3nc(-c4ccccc4F)nn23)c1OC,–,"6.31 µM [falling, partial curve, poor fit]"
CCCCc1ccc(-n2c(Cc3cccs3)n[nH]c2=S)cc1,"11.2 µM [rising, partial curve, poor fit]",–
O=C1C=C(NCc2ccc(Cl)c(Cl)c2)C2(CCCCC2)O1,"14.1 µM [rising, partial curve]","12.6 µM [rising, single point]"
CCOC(=O)Cc1csc(/N=C/c2c(O)n(-c3ccccc3C(F)(F)F)c(=O)c3ccccc23)n1,"14.1 µM [rising, single point]",–
Cc1ccc(CNC(=O)Cn2c(SCC(=O)Nc3ccc(F)cc3)nc3ccccc32)cc1,"28.2 µM [falling, partial curve, poor fit]","22.4 µM [falling, partial curve, poor fit]"
CC1(C)CC(=O)C(C=Nc2cc(C(=O)c3ccccc3)ccc2N)=C(O)C1,"0.0141 µM [falling, full curve, poor fit]",–
CCCCn1c(CN2CCN(c3cccc(Cl)c3)CC2)nc2c1c(=O)n(C)c(=O)n2C,"2.82 µM [rising, single point]",–
O=C(Nc1nnc(SCc2ccc(Cl)cc2)s1)c1cnccn1,"15.8 µM [rising, partial curve]","14.1 µM [rising, partial curve]"
CCC(Sc1nc(C)cc(=O)[nH]1)C(=O)Nc1nc(-c2ccccc2)cs1 (stereo not drawn),"15.8 µM [rising, partial curve]","12.6 µM [rising, partial curve, poor fit]"
CC1(C)Cc2c(C#N)c(N3CCN(C(=O)c4ccccc4)CC3)nc(Cc3ccccc3)c2CO1,"12.6 µM [rising, single point]","11.2 µM [rising, single point]"
Cc1cccc(OC(=O)NCCOC(=O)N(O)c2ccc(Cl)cc2)c1,"35.5 µM [rising, single point]",–
Cc1ccc(CNC(=O)C(C)n2c(=O)cc(C(F)(F)F)c3c(C)nn(C)c32)cc1 (stereo not drawn),"0.562 µM [falling, full curve, poor fit]","39.8 µM [falling, partial curve, poor fit]"
Cc1[nH]c2ccccc2c1/C=N/NC(=O)c1cccc(S(=O)(=O)Nc2cccc(C(F)(F)F)c2)c1,"35.5 µM [falling, single point]","35.5 µM [falling, partial curve]"
CCn1c(SCC(=O)Nc2oc(-c3ccccc3)c(-c3ccccc3)c2C#N)nnc1-c1cc(OC)cc(OC)c1,–,"10 µM [rising, partial curve, poor fit]"

# No new results follow: entries from further up.
SMILES,AC50 [1],AC50 [2]
CCOC(=O)c1cc(-c2ccc(OC)cc2)n(CCC(=O)NCCc2ccccc2)c1C,"6.31 µM [rising, full curve, poor fit]",–
COc1cccc(C(=O)NCCc2csc3nc(-c4ccccc4F)nn23)c1OC,–,"6.31 µM [falling, partial curve, poor fit]"
CCCCc1ccc(-n2c(Cc3cccs3)n[nH]c2=S)cc1,"11.2 µM [rising, partial curve, poor fit]",–

# Remaining list, next part:

SMILES,AC50 [1],AC50 [2]
NC1=NC(c2cn(-c3ccccc3)nc2-c2cccs2)n2c(nc3ccccc32)N1 (stereo not drawn),"31.6 µM [rising, single point]",–
CCOc1ccc(/C=N/NC(=O)c2c(C)n(C)c3ccc(OC)cc23)cc1,"11.2 µM [rising, partial curve]",–
Cc1cc(-c2c(C)[nH]n(-c3ccccc3)c2=O)n[nH]1,"2.51 µM [falling, full curve]","4.47 µM [falling, full curve]"
CCOc1ccc(C2C(=O)N(C3CCCCCC3)CC(=O)N2Cc2ccccc2)cc1OC (stereo not drawn),"20 µM [rising, partial curve, poor fit]","22.4 µM [rising, single point]"
Cc1nn(CCc2nn[nH]n2)c2nc(-c3ccc(Br)cc3)cc(C(F)(F)F)c12,–,"8.91 µM [falling, partial curve, poor fit]"
COc1cc(C#N)c(NC(=O)CN2CCN(CCO)CC2)cc1OC,"0.0178 µM [falling, full curve, poor fit]","1 µM [falling, full curve]"
O=C(Nc1ccc(Oc2c(F)c(F)c(F)c(F)c2F)cc1)OC1CCN2Cc3ccccc3N=C12 (stereo not drawn),"8.91 µM [falling, partial curve]","7.94 µM [falling, partial curve]"
O=C(CSc1ccccc1Cl)N1CCC(c2nc3ccccc3s2)CC1,"12.6 µM [rising, partial curve]","11.2 µM [rising, partial curve]"
C[C@H](NCCc1ccc(O)cc1)[C@@H](O)c1ccc(O)cc1,"14.1 µM [falling, single point]","12.6 µM [falling, partial curve, poor fit]"
NC(=Nc1ccccc1)NC(=O)c1nc(Cl)c(N)nc1N,–,"8.91 µM [rising, partial curve]"
CCOC(=O)c1cccc(NC(=O)c2ncoc2-c2ccco2)c1,–,"0.0316 µM [rising, full curve, poor fit]"
COc1ccc(/C=C/C(=O)OCC(=O)c2c(C)[nH]c3ccccc23)cc1OC,"11.2 µM [rising, partial curve]",–
CC(=O)N1CCN(c2ccc(Oc3nnnn3-c3ccccc3)cc2)CC1,"15.8 µM [rising, single point]",–
O=C(CSc1n[nH]c(-c2ccccc2Cl)n1)NCCCc1ccccc1,–,"1.58 µM [rising, partial curve]"
Fc1ccc(/C=C2\CCCC3=C2Nc2ncnn2C3c2ccc(F)cc2)cc1 (stereo not drawn),"35.5 µM [falling, single point]",–
C/C(=N\Nc1ccc(S(=O)(=O)N2CCOCC2)cc1[N+](=O)[O-])C(C)C,"12.6 µM [rising, partial curve]","0.0316 µM [rising, full curve, poor fit]"
